Results taken from patent US20200397896A1, “Combination Therapies Comprising Daratumumab, Bortezomib, Thalidomide and Dexamethasone and Their Uses” (Janssen Biotech, Inc., priority 2019, published 2020).

System: patients with multiple myeloma
Test: Clinical trials pooled (monotherapy and combination treatments; N=2,066), safety
Details: human, in vivo

DARZALEX: IgG1κ human monoclonal antibody against CD38; HC SEQ ID NO: 9, LC SEQ ID NO: 10
Median duration of 16 mg/kg infusion, 1st week: approximately 7 hours
Median duration of 16 mg/kg infusion, 2nd week: ~4 h
Median duration of 16 mg/kg infusion, subsequent infusions: ~3 h
